Results published in PubChem BioAssay AID1347423 (Functional Genomics Laboratory (NCATS/FGL), 2020).
About 210 (0.4%) of roughly 52,000 sequences were called active.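 Rule for the calls: active = gene whose silencing raises cell survival under the drug, median off-target-corrected z-score across its silencing RNAs 2 or more; inactive = the rest.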 The list shows a part of the results.

Test: Resistance to Poly (ADP-Ribose) Polymerase inhibitor: Gene Identification via Genome-wide siRNA Screen
Settings: mouse BRCA2 R2336H ES cells, olaparib, CellTiter-Glo viability; hits give high values
How it was run: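 Mouse BRCA2 R2336H ES cells were reverse-transfected with siRNA (20 nM final), treated at 48 h with 500 nM olaparib, and read by CellTiter-Glo after 72 h. Scores: MAD-based z per siRNA, median per gene, seed off-target correction.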

| Sequence | z-score |
| --- | --- |
| GGAUAGGAUUCGAUGUCGUTT against 2310079N02Rik | inactive: 0.36 |
| GGACGGCUCUAAAGAUGAGTT against Spin | inactive: -0.551 |
| GGACAUGAGGACUGUAUCATT against Clec4g | inactive: 1.46 |
| GGAAUUUGCCUAUAUGAAGTT against Riok2 | inactive: 0.433 |
| GGUUGUUCGAGGAAUAUCCTT against Cmya3 | inactive: 0.377 |
| CGUUCAGUGUCUGCAGGUUTT against Mrps12 | inactive: -2.86 |
| GGGUAUGAUGUGAUUGCUCTT against Eif4a2 | inactive: -0.664 |
| GCCACUUACUUUUCUGAAATT against Commd7 | inactive: -0.435 |
| CCACAGUGAAUCGAGCUUATT against Olfr685 | inactive: -0.614 |
| CCAGAUAUGAUGGUGCAAGTT against Sfrp4 | inactive: 2.26 |
| GGACAGCAUUCUGAGCAGUTT against Cx3cr1 | inactive: -0.156 |
| GGUUCAUGGAGAAGAAUCUTT against D1Ertd161e | inactive: 0.156 |
| GGACCACGCAAAAGAAUAUTT against Mtss1 | inactive: -1.51 |
| GGACUGCUAUGGGUCUUCATT against Clk3 | inactive: -1.64 |
| GCCCAACAACGCAGAAUUUTT against Cyp4v3 | inactive: 2 |
| GCUGAACCAAACCCAAAUGTT against Snph | inactive: -1.59 |
| CGGGACCUAUGUGAUCAUGTT against Casp1 | inactive: -0.201 |
| GGAGCUCAUCUUCACAGGCTT against D4Ertd765e | inactive: -0.574 |
| GCGGCUUUGGCAAUUCUCUTT against Olfr1361 | inactive: -1.31 |
| GGCUACACAAGAAGAUUCUTT against Stk22s1 | inactive: 1.41 |
| GCAUUUCACUUUGAGAAAUTT against Ahrr | inactive: -0.531 |
| CCUCAAAACAGUGUGGACATT against 9630041A04Rik | inactive: -1.51 |

| Sequence | z-score |
| --- | --- |
| GGUCUCAGGCUCAACUCAATT against LOC619945 | inactive: 0.684 |
| GCGAUUUGUCUAGUCCAAATT against Zfp622 | inactive: -0.365 |
| CGUACAUGCUCCUUCUAUCTT against 2900005J15Rik | inactive: 0.537 |
| GGUUGACAUGGUUCAGUCATT against Tcf23 | inactive: -0.516 |
| GGACAUCGUGCUCUAUCUCTT against Nrarp | inactive: 0.496 |
| GCAUACGAGGAAACUACAUTT against Chm | inactive: -0.972 |
| GGAUUUUGAAGACAUCUGUTT against D2Ertd435e | inactive: 0.651 |
| GGACAGUUUAAGGACAACATT against Mopt | inactive: 1.2 |
| GGAUCCUGGUCCAAACUUUTT against 0610007C21Rik | inactive: 2.42 |
| GGGUUCAUUCUUAUGUAUGTT against 2600010E01Rik | inactive: 0.967 |
| GGUUGAUGAGUUUAGGUUUTT against Cpsf2 | inactive: 0.588 |
| GGACUGCACUGUCAUGGUATT against Coro1b | inactive: 0.641 |
| GGCUGGAAAAUCAAUUCUUTT against Siat8d | inactive: -1.1 |
| CCACCUCUCAAAUAAAACATT against Cyp2a5 | inactive: -0.299 |
| GCAAAAGCUAAUAAACUUGTT against Acox2 | inactive: 0.354 |
| GCGGCAUACUCCAACUUCUTT against 2810024B22Rik | inactive: 1 |
| GGAAUGGACCGGGUUCAUCTT against Fcmd | inactive: 0.578 |
| GCAGGGAAUAGCAAACUUATT against Nfil3 | inactive: -0.0131 |
| GCGGGAACUUAAAGUUUACTT against Yars | inactive: 1.87 |
| CCACUGAUUGUUGACUGCUTT against Trip6 | inactive: -1.07 |
| GGAGCGUGACUUUGUAUAATT against Ly6g6e | inactive: -1.25 |
| CCCACAUCUUAACUUGUUGTT against Rab5c | inactive: 0.385 |

| Sequence | z-score |
| --- | --- |
| CGUCCAACCACAGAUCUACTT against 4921536K21Rik | inactive: -2.44 |
| GGUCAAUUCCAUGAUUACGTT against Pgm3 | inactive: 0.801 |
| GGUUGACAACCACCUUUUUTT against Pip5k2a | inactive: -0.105 |
| GCGGAAGUAAGCUUGGAUGTT against BC023835 | inactive: -1.54 |
| GGGAAUCAUUAAAUAGGAUTT against 4933432P15Rik | inactive: -0.0673 |
| GGAGUUAUUCUAGGAAUAUTT against BC014805 | inactive: 0.624 |
| GGAAGUCUUCCAUGAUAUUTT against 4933400A11Rik | inactive: -1.5 |
| GCAGGGUUUCAAAGAUAACTT against Npepl1 | inactive: 0.0866 |
| GGAAAACAAAUUCAAGUGCTT against Tex9 | inactive: 0.00647 |
| AUGCAGUCAGAGACAGACCTT against MGC118210 | inactive: 0.968 |
| GCCCGUCACAAUCAUUACCTT against Zfp523 | inactive: -1.12 |
| CGAAUUGAAUUCUACGAACTT against Pmm2 | inactive: -0.109 |
| CGCCAAUUCAUCGUUGACUTT against Ccl3 | inactive: 2.11 |
| CGUAAAUGGCGAUUGAUCUTT against 2810465F10Rik | inactive: -0.8 |
| CCAUCCUCAACAAGAUCGATT against Rab4b | inactive: 1.07 |
| GGACCAGUGUCUUUUCAGATT against Hmmr | inactive: 1.02 |
| AGUCACAGUAAUCUCCUACTT against LOC435366 | inactive: 0.0969 |
| CCGUGUCAUUUGGAGAGCUTT against 2310003L22Rik | inactive: 1.8 |
| GGUUGAUUUGUAGGGAGAGTT against Olfr1110 | inactive: -0.429 |
| GGAUCAGAUGAUAAACCAUTT against 4833441J24Rik | inactive: -1.54 |
| GCACUACUGAUGGGUUUCUTT against Nme2 | inactive: -1.88 |
| GCCCUGCUAGACAUUCUCUTT against Arrdc1 | inactive: 0.0233 |

A section of the results above, for reference:

| Sequence | z-score |
| --- | --- |
| GGACCAGUGUCUUUUCAGATT against Hmmr | inactive: 1.02 |
| AGUCACAGUAAUCUCCUACTT against LOC435366 | inactive: 0.0969 |
| CCGUGUCAUUUGGAGAGCUTT against 2310003L22Rik | inactive: 1.8 |
| GGUUGAUUUGUAGGGAGAGTT against Olfr1110 | inactive: -0.429 |
